This note sets out measurements from paper PMC5388737, “Exploring the Role of CYP3A4 Mediated Drug Metabolism in the Pharmacological Modulation of Nitric Oxide Production” (Frontiers in Pharmacology, 2017).

For the test, the system named is NO production in LPS stimulated RAW 264.7 macrophages. Briefly: NO production in LPS stimulated RAW 264.7 murine macrophages (Griess assay). The note with it: Mus musculus, RAW264.7, 24 h, concentrations with viability <80% rejected. The class given is cell-based. The method, then:
The mouse macrophage cells, RAW264.7 (ATCC® TIB-71™) were obtained from ATCC and cultured in Dulbecco's Modified Eagle Medium (DMEM), supplemented with 10% FBS and 2 mM l-glutamine, in a humidified 5% CO2 atmosphere at 37°C. All cell handling steps were carried out using the SelecT automated cell culture system. RAW264.7 cells were seeded into 96-well plates at a density of 20 × 10^3 cells per well and grown to approximately 50% of confluence (24 h). They were cultured for another 24 h with each of the test compounds described above (5 μL of stock serial dilutions in 20% DMSO were dispensed into 190 μL of fresh medium using Perkin Elmer Evolution P3, Waltham, MA,). […]
Test compound activities were calculated automatically using the Genedata Screener software (Genedata AG, Basel, Switzerland), and the percentage inhibition of each commercial compound was determined by Equation (1), integrated in the Genedata Screener software. Percentage of control of production of nitric oxide was: (1) Percentage of control = (Abswell − Absneg/Abspos − Absneg) ∗ 100 where Abswell is the absorbance measured per specific well; and Abspos and Absneg are the average absorbance measured for the positive (LPS/solvent vehicle) and negative controls (-LPS/solvent vehicle, respectively). […]

In the case of `Clc1ccc(COC(Cn2ccnc2)c2ccc(Cl)cc2Cl)c(Cl)c1` (stereo not shown) [Miconazole, miconazole], the IC50 is 7.35 µM.

The term IC50 denotes the point on the concentration scale where inhibition reaches its midpoint. The low end stands for greater potency, the high end for weaker potency.
